From article PMC6368300
These are yes or no findings as the source states them, for the method shown.

Molecular target: T1, ΔChd7(787–2134) (human) (UniProt Q9P2D1)
T1 sequence: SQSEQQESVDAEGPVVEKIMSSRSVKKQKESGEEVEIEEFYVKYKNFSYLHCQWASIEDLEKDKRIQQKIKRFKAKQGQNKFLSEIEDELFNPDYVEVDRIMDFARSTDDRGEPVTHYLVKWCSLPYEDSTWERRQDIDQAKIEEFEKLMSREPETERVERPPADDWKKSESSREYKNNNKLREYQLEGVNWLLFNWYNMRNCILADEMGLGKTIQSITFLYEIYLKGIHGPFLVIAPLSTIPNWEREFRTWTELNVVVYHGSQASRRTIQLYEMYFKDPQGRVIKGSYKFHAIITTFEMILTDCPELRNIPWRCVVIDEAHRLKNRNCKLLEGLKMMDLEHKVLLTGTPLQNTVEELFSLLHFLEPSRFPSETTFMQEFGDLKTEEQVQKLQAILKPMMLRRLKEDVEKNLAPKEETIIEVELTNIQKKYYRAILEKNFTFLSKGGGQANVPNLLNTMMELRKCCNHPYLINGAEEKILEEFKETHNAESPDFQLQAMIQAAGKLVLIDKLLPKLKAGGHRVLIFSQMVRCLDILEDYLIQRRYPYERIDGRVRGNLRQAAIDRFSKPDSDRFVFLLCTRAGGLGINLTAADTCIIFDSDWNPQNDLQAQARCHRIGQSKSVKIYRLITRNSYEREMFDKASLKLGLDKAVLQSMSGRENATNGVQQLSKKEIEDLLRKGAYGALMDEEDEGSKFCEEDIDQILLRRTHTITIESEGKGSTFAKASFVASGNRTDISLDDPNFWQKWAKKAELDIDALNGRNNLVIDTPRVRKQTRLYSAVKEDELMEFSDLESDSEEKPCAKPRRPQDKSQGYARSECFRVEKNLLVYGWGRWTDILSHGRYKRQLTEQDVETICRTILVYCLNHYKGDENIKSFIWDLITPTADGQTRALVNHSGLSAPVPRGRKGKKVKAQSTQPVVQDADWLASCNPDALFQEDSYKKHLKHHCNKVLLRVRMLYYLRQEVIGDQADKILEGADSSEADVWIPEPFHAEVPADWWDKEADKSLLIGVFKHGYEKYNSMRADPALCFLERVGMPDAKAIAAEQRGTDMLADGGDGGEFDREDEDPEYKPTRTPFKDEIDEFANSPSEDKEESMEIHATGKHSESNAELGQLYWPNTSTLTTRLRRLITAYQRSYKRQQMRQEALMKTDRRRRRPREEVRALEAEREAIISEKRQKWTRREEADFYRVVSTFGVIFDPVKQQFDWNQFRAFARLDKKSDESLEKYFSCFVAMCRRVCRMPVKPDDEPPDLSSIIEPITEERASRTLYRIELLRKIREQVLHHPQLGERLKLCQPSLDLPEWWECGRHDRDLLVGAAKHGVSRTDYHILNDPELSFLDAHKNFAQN
Test: native gel or EMSA; native PAGE binding experiments of PKM2 and ΔChd7, with increasing molar concentration of PKM2 or of Chd7 (S1 Fig); both purified

Substance: Pyruvate Kinase M2 (from UniProt P14618 1-531) (enzyme)
- binding: no binding
